Test results taken from the supplement of paper PMC7024190.
Counter-ions that a name gives are not always drawn. Some of the results follow. This data set is noisy: repeats of one test often differ as much as different tests do.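 The cells were human embryonic kidney cells carrying a Renilla luciferase gene, driven by the HSV-TK promoter, on a plasmid put in briefly by transfection. This is the first-round screen of about ten thousand compounds, looking for ones that raise reporter output.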

test system: HEK 293FT; test: log relative Renilla luciferase luminescence (reporter expression vs reference, reference not stated) (log (base not stated)); higher = higher recombinant reporter expression; details: 10 µM; time after transfection 48 h

SMILES | log
COc1ccc([C@@H]2Sc3ccccc3N(CCN(C)C)C(=O)[C@@H]2OC(C)=O)cc1 [Diltiazem hydrochloride] | -0.0109
CCC(=O)NC[C@H](Cc1ccc(OCCc2nc(-c3ccccc3)oc2C)cc1)N/C(C)=C\C(=O)c1ccc(C(F)(F)F)cc1 | -0.132
O=c1[nH]ccc2c(S(=O)(=O)N3CCCNCC3)cccc12 [HA 1100 hydrochloride] | -0.141
Clc1ccccc1CNCC1CCC(CNCc2ccccc2Cl)CC1 (stereo not given) | 0.205
CCOc1cc(CC(=O)N[C@@H](CC(C)C)c2ccccc2N2CCCCC2)ccc1C(=O)O [Repaglinide] | -0.194
NS(=O)(=O)c1cccc2c1c([N+](=O)[O-])cc1nc(O)c(O)nc12 | 0.0674
CCN(CC)CCOc1ccc(Cc2ccccc2)cc1 [DPPE fumarate] | -0.012
Nc1nc(Nc2ccccc2)nc2c1ncn2[C@@H]1O[C@H](CO)[C@@H](O)[C@H]1O | -0.0515
CC(CCCCC(=O)Nc1ccc(C(F)(F)F)cc1)NCCc1cnc[nH]1 (stereo not given) [HTMT dimaleate] | -0.0536
CCOC(=O)c1ccc(OC(=O)CCCCCNC(=N)N)cc1 [Gabexate mesylate] | 0.129
CC(C)NC[C@H](O)COc1ccc(CC(N)=O)cc1 [S-(-)-Atenolol] | 0.1
O=C1N(c2ccccc2)c2ccccc2C1(Cc1ccncc1)Cc1ccncc1 [Linopirdine dihydrochloride] | -0.0416
CC(Cc1ccccc1)(NC(=O)CN)c1ccccc1 (stereo not given) [Remacemide hydrochloride] | 0.217
Fc1ccc(-c2nc3n(c2-c2ccncc2)CCS3)cc1 | 0.0646
Cc1nc2ccc(NC(=O)Nc3ccnc4cccnc34)cc2o1 | 0.102
Cc1c(C(=O)NN2CCOCC2)nn(-c2ccc(Cl)cc2Cl)c1-c1ccc(I)cc1 | -0.0734
Cn1cc(C(=O)OCC2CCN(CCNS(C)(=O)=O)CC2)c2ccccc21 | 0.038
CN/C(=N\CCSCc1nc[nH]c1C)NC#N [Cimetidine] | 0.0656
Nc1nc2c(nc(Br)n2[C@@H]2O[C@@H]3COP(=O)(O)O[C@H]3[C@H]2O)c(=O)[nH]1 [8-Bromo-cGMP, sodium salt] | -0.0288
Cc1nc2c(c(=O)[nH]1)CSCC2 | -0.0661

Pulled one by one from above, 2 records:
SMILES | log
COc1ccc([C@@H]2Sc3ccccc3N(CCN(C)C)C(=O)[C@@H]2OC(C)=O)cc1 [Diltiazem hydrochloride] | -0.0109
Fc1ccc(-c2nc3n(c2-c2ccncc2)CCS3)cc1 | 0.0646

Later entries

SMILES | log
COc1cc(SC)ccc1C(=O)N1CCC(Cc2ccccc2)CC1 | -0.051
O=C(O)CCC/C=C\C[C@@H]1CO[C@H](C(F)(F)F)O[C@@H]1c1ccccc1O | 0.137
CC(C)NCC(O)COc1ccc(COCCOC(C)C)cc1 (racemic) [(±)-Bisoprolol hemifumarate] | 0.0747
CC(C)(C)c1ccc(S(=O)(=O)/C=C/C#N)cc1 | -0.076
Cc1c(C(=O)NC2CCCCC2)sc2nc3ccc(N)cc3n12 | -0.0364
Nc1nc(NCCc2ccc(O)cc2)nc2nc(-c3ccco3)nn12 | 0.031
O=C(O)Cc1ccc(OCCNC[C@H](O)c2ccccc2)cc1 [ZD 2079 hydrochloride] | 0.0628
COc1cc2c(cc1O)CC[C@@H]1[C@@H]2CC[C@]2(C)[C@@H](O)CC[C@@H]12 [2-Methoxyestradiol] | 0.0923
O=c1ncccn1[C@@H]1O[C@H](CO)[C@@H](O)[C@H]1O [Zebularine] | -0.0838
CC(=O)OCCNC(=O)c1cccnc1 [N-[2-(Acetoxy)ethyl]-3-pyridinecarboxamide] | 0.0158
COc1ccc2c(c1OC)C(=O)O[C@@H]2[C@H]1c2c(cc3c(c2OC)OCO3)CCN1C [Noscapine hydrochloride] | 0.114
CCOC(=O)c1c(C)[nH]c2ccc3c(c12)CN1CCc2cc(OC)ccc2C1O3 (stereo not given) | -0.0488
CCN1CCC[C@H]1CNC(=O)c1c(OC)ccc(Br)c1OC [Remoxipride hydrochloride] | 0.0591
CC[C@H](C)C(=O)O[C@H]1CCC=C2C=C[C@H](C)[C@H](CC[C@@H]3C[C@@H](O)CC(=O)O3)[C@H]21 [Mevastatin] | 0.156
CC(C1=C(CCN(C)C)Cc2ccccc21)c1ccccn1 (stereo in doubt) [(S)-(+)-Dimethindene maleate] | -0.0585
CC1CCN=C(N)S1 (stereo not given) [AMT hydrochloride] | -0.199
COCCNC(=O)COc1ccc(OCCNC[C@H](O)COc2ccccc2)cc1 [ZD 7114 hydrochloride] | -0.0243
CC1(C)C[C@@H]1C(=O)N/C(=C\CCCCSC[C@H](N)C(=O)O)C(=O)O [Cilastatin sodium] | -0.0678
CCC(NC(C)C)C(O)c1ccc(O)c2[nH]c(=O)ccc12 (stereo not given) [Procaterol hydrochloride] | -0.0346
Oc1cc2c(cc1O)C(c1ccccc1)CNCC2 (stereo not given) | 0.088

3 entries from above, ordered by formula weight, falling.
SMILES | log
COCCNC(=O)COc1ccc(OCCNC[C@H](O)COc2ccccc2)cc1 [ZD 7114 hydrochloride] | -0.0243
CC[C@H](C)C(=O)O[C@H]1CCC=C2C=C[C@H](C)[C@H](CC[C@@H]3C[C@@H](O)CC(=O)O3)[C@H]21 [Mevastatin] | 0.156
COc1cc2c(cc1O)CC[C@@H]1[C@@H]2CC[C@]2(C)[C@@H](O)CC[C@@H]12 [2-Methoxyestradiol] | 0.0923
